Data as given in PubChem BioAssay AID1259405 (NCATS, 2018).
The deposit covers about 50,000 reagents; this is a part drawn at random. About 4,000 of them (8%) count as active. 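Mouse siRNA library applied to hamster cells; one well for each siRNA.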 Reagents against one gene are numbered here.

Screen: 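Knock-downs that lift recombinant protein yield in hamster ovary cells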 (primary screen)
Cell system: Chinese hamster CHO-K1 ovary cells with stable secreted eGFP expression
Reagent: single siRNA against mouse genes, 0.8 pmol siRNA per well (2 µl of 400 nM stock)
Duration: 3 days
Measurement: 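Per-well intracellular GFP measured by laser scanning cytometry, plus viability from ATP luminescence, each relative to plate median of non-targeting control wells, in %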
Reading the numbers: GFP, % of control: higher = more GFP per well, higher productivity; viability (ATP), % of control: higher = more viable cells (more ATP)
Hit rule: 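Called active when intracellular GFP, relative to negative control, is at or above 120%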

Gene,siRNA no.,"GFP, % of control","viability (ATP), % of control",Call
Pck1,1,75,80.1,inactive
Pck1,2,75,78.8,inactive
Pck1,3,60.7,65.1,inactive
1700012A03Rik,1,92.5,83.7,inactive
1700012A03Rik,2,83.4,72.3,inactive
1700012A03Rik,3,89.9,140,inactive
Esd,1,111,82.7,inactive
Esd,2,99.4,64.9,inactive
Esd,3,80.3,89.9,inactive
Dynlt2b,1,42.8,59.9,inactive
Dynlt2b,2,59.8,78.6,inactive
Dynlt2b,3,50.7,50.9,inactive
Recql,1,52.1,72.4,inactive
Recql,2,66.9,96.9,inactive
Recql,3,30.2,31.9,inactive
Tnfrsf19,1,66.7,72.1,inactive
Tnfrsf19,2,37.9,55.9,inactive
Tnfrsf19,3,72.2,63.8,inactive
Zgrf1,1,86.9,102,inactive
Zgrf1,2,68.7,79.2,inactive
Zgrf1,3,89.6,82,inactive
Rragd,1,72.6,80.9,inactive
Rragd,2,54.2,51.5,inactive
Rragd,3,63.7,70.7,inactive
Yeats4,1,63.7,92.7,inactive
Yeats4,2,29.2,43.7,inactive
Yeats4,3,32.2,61.4,inactive
Hbb-y,1,110,87.3,inactive
Hbb-y,2,61.6,37.2,inactive
Hbb-y,3,74.3,83.2,inactive
Pou4f3,1,86.3,89,inactive
Pou4f3,2,38.1,46.7,inactive
Pou4f3,3,76.6,83.2,inactive
Mef2a,1,116,68.3,inactive
Mef2a,2,74.3,70.9,inactive
Mef2a,3,67.3,70.7,inactive
Acsm2,1,58.4,77.7,inactive
Acsm2,2,113,93.3,inactive
Acsm2,3,146,148,active
Nfkbib,1,49.8,61.2,inactive
Nfkbib,2,165,100,active
Nfkbib,3,90.2,81.7,inactive
Kif18b,1,38.8,53.1,inactive
Kif18b,2,63.2,87.2,inactive
Kif18b,3,58.8,79.6,inactive
Slc6a2,1,75.4,82.2,inactive
Slc6a2,2,95.4,70.9,inactive
Slc6a2,3,91.8,93.7,inactive
C030016D13Rik,1,55.7,60.5,inactive
C030016D13Rik,2,75.9,81.4,inactive
C030016D13Rik,3,103,98.6,inactive
Fam187a,1,67.8,63.7,inactive
Fam187a,2,91.1,101,inactive
Fam187a,3,106,111,inactive
Tas2r121,1,53.3,83.8,inactive
Tas2r121,2,57.6,98,inactive
Tas2r121,3,86.1,84.9,inactive
Or2c1,1,94.9,67,inactive
Or2c1,2,96.2,65.5,inactive
Or2c1,3,30.8,102,inactive
Prl8a1,1,102,81.6,inactive
Prl8a1,2,108,94.1,inactive
Prl8a1,3,76,65.9,inactive
Tnip2,1,61.1,64,inactive
Tnip2,2,120,128,active
Tnip2,3,128,163,active
Ctns,1,82,65.2,inactive
Ctns,2,120,94.7,active
Ctns,3,61.4,57.1,inactive
Ifit2,1,83.4,79.1,inactive
Ifit2,2,73.5,73.9,inactive
Ifit2,3,74.7,74.3,inactive
Slc35e4,1,140,67.7,active
Slc35e4,2,71.7,81.4,inactive
Slc35e4,3,93.9,104,inactive
Lmcd1,1,59.9,70.1,inactive
Lmcd1,2,79.6,79.6,inactive
Lmcd1,3,81.2,68.3,inactive
Cachd1,1,93.2,99.5,inactive
Cachd1,2,83.7,94.1,inactive
Arhgef19,1,45.3,68.8,inactive
Arhgef19,2,60.6,84.8,inactive
Arhgef19,3,42.7,33.2,inactive
Oas2,1,62.6,83.1,inactive
Oas2,2,65.4,67.5,inactive
Oas2,3,35.7,24,inactive

Ordered by “viability (ATP), % of control” (highest first): 10 of the entries above.
Gene,siRNA no.,"GFP, % of control","viability (ATP), % of control",Call
Cachd1,1,93.2,99.5,inactive
Cachd1,2,83.7,94.1,inactive
Arhgef19,2,60.6,84.8,inactive
Oas2,1,62.6,83.1,inactive
Lmcd1,2,79.6,79.6,inactive
Arhgef19,1,45.3,68.8,inactive
Lmcd1,3,81.2,68.3,inactive
Oas2,2,65.4,67.5,inactive
Arhgef19,3,42.7,33.2,inactive
Oas2,3,35.7,24,inactive
